# Laboratory results reported in patent US20210139593A1 (UNIVERSIDAD DE CHILE, published 2021).
# These are yes or no findings as the source states them, for the method shown. Some binding calls cover weakened binding; strength is not graded here.
# B1: viral particle that expresses anti-MICA scFv (scFv-aMICA-phage) (scFv, not shown: large carriers)
# scFv: EFGVVMTQSPDFQSVTPKEKVTITCRASQSIGRSIHWYQQKPDQSPKLLVMYASQSFSGVPSRFSGSGSGTDFTLTINSLEAEDAATYYCHQSYSVPRSFGQGTKLEIKRTVAAGGSSRSSSSGGGGSGGGGQVQLQESGPGLVKPSQTLSLTCTVSGDSVRSAYSSWNWIRQPPGKGLEWIGQIHPNGNTYYNPSLMSRITVSIDTSKNQFSLKLDSVTAADTAVYFCATEGVTSESGSFDIWGQGRMVIVSSASTKGPSVAS
# B2: anti-MICA scFv protein (scFv-aMICA) (scFv)
# scFv: B1 scFv
# notes: Monomeric soluble scFv produced from the phagemid pUCH1 Amber; also called scFv-MICA
# Key:
# [1] = target: T1, recombinant MICA (rMICA) (UniProt Q29983); test: phage ELISA on plates coated with rMICA
# T1 sequence (looked up): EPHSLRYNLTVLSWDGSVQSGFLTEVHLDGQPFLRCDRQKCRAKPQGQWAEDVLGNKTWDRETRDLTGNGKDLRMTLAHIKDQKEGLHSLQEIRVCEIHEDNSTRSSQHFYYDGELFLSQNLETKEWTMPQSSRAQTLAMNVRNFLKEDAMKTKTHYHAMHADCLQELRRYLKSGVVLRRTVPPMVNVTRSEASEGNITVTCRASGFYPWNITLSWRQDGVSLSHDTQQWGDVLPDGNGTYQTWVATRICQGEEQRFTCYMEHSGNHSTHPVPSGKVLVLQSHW
# [2] = target: T2, native MICA on AGS and MKN-45 gastric cancer cells (human) (UniProt Q29983); test: flow cytometry of phage clones on native MICA
# T2 sequence (looked up): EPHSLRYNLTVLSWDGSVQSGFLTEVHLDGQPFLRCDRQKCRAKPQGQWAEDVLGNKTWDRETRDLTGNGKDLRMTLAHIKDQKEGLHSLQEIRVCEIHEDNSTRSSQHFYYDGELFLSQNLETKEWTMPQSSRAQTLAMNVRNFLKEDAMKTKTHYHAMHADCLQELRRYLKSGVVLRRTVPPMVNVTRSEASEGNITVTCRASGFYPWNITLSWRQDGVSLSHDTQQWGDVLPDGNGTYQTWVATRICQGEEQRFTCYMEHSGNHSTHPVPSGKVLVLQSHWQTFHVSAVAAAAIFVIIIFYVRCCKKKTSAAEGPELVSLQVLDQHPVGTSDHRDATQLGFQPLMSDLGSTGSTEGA
# [3] = target: T1, recombinant MICA (rMICA); test: ELISA on rMICA
Binder,binding [1],binding [2],binding [3]
B1,binds,binds,–
B2,–,–,binds
